Data as given in patent publication US5019492A, “Photographic element and process comprising a blocked photographically useful compound” (Eastman Kodak Company, priority 1989, dated 1991).

Tests used:
[1] = Photographic element with blocked ETA compound: sensitometry after C-41 development with and without hydroxylamine sulfate; details: for Relative Speed: control = 100; for Relative Gamma Difference: vs control
From the text: A green sensitized silver bromoiodide gelatin emulsion (0.7 micron grain size) was mixed with a coupler dispersion comprising cyan coupler C-1 dispersed in half its weight of di-n-butyl phthalate and a blocked ETA compound of the invention dispersed in twice its weight of N,N-diethyl lauramide. The resulting mixture was coated on a photographic film support according to the following format (amounts of each component are given in mg/m^2 with silver halide counted as silver):
OVERCOAT Gelatin (5382); bis(vinylsulfonyl-
LAYER: methyl) ether hardener (2% of
EMULSION Gelatin (3229); green-sensitized
LAYER: AgBrI emulsion (877); cyan coupler
C-1 (969); and a blocked ETA
Each photographic element was imagewise exposed to light through a graduated density test object in a commercial sensitometer to provide a developable latent image (3000° K. light source, 0-4 step wedge, with Wratten 99 plus 0.5ND filter. Wratten is a trademark). The resulting photographic film was then developed and processed in a commercial C-41 development process of Eastman Kodak Company, U.S.A. without the final stabilizer step. This process and the processing compositions for the process are described in, for example, British Journal of Photography Annual 1988, Pages 191-199. The development process was carried out with and without hydroxylamine sulfate (HAS) in the color developer solution.
Densitometric measurements made with red light are shown in Table II wherein the values in parentheses are for the samples processed in the developer without HAS. Dmin is the average fog level. Gamma is the maximum contrast between two density points which are 0.4 log E apart, taken as the difference from the gamma of the control sample which contains no blocked ETA compound. Photographic speed is also taken relative to the control sample (set at 100) and is measured at 0.15 density above fog.

[2] = Blocked masking coupler with main image coupler C-1 in a monochrome layer: green density and red image parameters; details: 0.108 mmole/m^2; for Green Density @ Exp. High: high exposure; for Green Density @ Exp. High / Green Density @ Exp. Low: processed; for Green Density @ Exp. Low: low exposure; for Red Image Spd.: relative to control at 100; for Green Density @ Exp. None: unexposed fixed strips
From the text: Dispersions were made as in Example 3 but with added cyan coupler C-1 dispersed in half its weight of di-n-butyl phthalate. These were then coated in the following format (unless otherwise specified, component amounts are given in mg/m^2 with silver halide counted as silver):
(§1) OVERCOAT Gelatin (2691); bis(vinylsulfonyl-
(§2) LAYER: methyl) ether hardener (1.75% of
EMULSION Gelatin (3767); unsensitized AgBrI
LAYER: emulsion (1615); cyan image
coupler C-1 (754): masking coupler
FILM SUPPORT: with antihalation backing
Film strips of the above coatings were step-exposed through a Wratten 12 (minus blue) filter, processed (C-41) as in Example 2, and the photographic parameters measured as presented in Table V (density to green light was measured for unexposed fixed strips and for low and high exposure areas of processed strips; photographic speed of the red image is relative to the control at 100): […]

[3] = Unblocking of shifted masking coupler in fixed unexposed strips (density at 520 nm)
Procedure: Each compound was dispersed in an equal weight of 2,4-di-t-pentylphenol and coated in the following format on a poly(ethylene terephthalate) film support (unless otherwise specified, component amounts are given in mg/m^2 with silver halide counted as silver):
as §1, §2
EMULSION Gelatin (3767); unsensitized AgBr
LAYER: emulsion (906); masking coupler
Unexposed strips of this coated element were soaked 1 minute in a fixing solution to remove silver halide, washed, and then immersed in one of the following processing solutions at temperatures conventionally used for processing in a KODAK C-41 process:
P-1: pH 10 carbonate buffer
P-2: pH 10 carbonate buffer with 0.024M hydroxylamine sulfate
P-3: C-41 color developer with hydroxylamine sulfate omitted
P-4: C-41 color developer solution containing hydroxylamine sulfate

[4] = 0.215 mmole/m^2, developer with HAS
[5] = 0.215 mmole/m^2, developer without HAS
[6] = 0.431 mmole/m^2, developer with HAS
[7] = 0.431 mmole/m^2, developer without HAS
[8] = 1.076 mmole/m^2, developer with HAS
[9] = 1.076 mmole/m^2, developer without HAS
[10] = P-1 (pH 10 carbonate buffer): 10 Minutes
[11] = P-2 (pH 10 carbonate buffer with 0.024M hydroxylamine sulfate): 10 Minutes
[12] = P-3 (C-41 color developer, hydroxylamine sulfate omitted): 10 Minutes
[13] = P-4 (C-41 color developer containing hydroxylamine sulfate): 1 Minute
[14] = P-4 (C-41 color developer containing hydroxylamine sulfate): 10 Minutes

SMILES | Dmin [1, 4] | Relative Speed [1, 4] | Relative Gamma Difference [1, 4] | Dmin [1, 5] | Relative Speed [1, 5] | Relative Gamma Difference [1, 5] | Dmin [1, 6] | Relative Speed [1, 6] | Relative Gamma Difference [1, 6] | Dmin [1, 7] | Relative Speed [1, 7] | Relative Gamma Difference [1, 7] | Dmin [1, 8] | Relative Speed [1, 8] | Relative Gamma Difference [1, 8] | Dmin [1, 9] | Relative Speed [1, 9] | Relative Gamma Difference [1, 9] | Red Image Dmax [2] | Red Image Gamma [2] | also measured
CC1(C)CN(c2ccccc2)N=C1OC(=O)C(C)(C)C(=O)c1ccccc1 [Compound 1] | 0.07 | 102 | -0.01 | 0.06 | 100 | -0.06 | 0.07 | 103 | -0.08 | 0.06 | 101 | -0.09 | 0.07 | 105 | -0.54 | 0.05 | 100 | -0.35 | – | – | –
CC1(C)CN(c2ccccc2)N=C1OC(=O)C1(C)CCCCC1=O (centres unmarked) [Compound 2] | 0.09 | 108 | +0.10 | 0.06 | 100 | -0.02 | 0.09 | 109 | -0.04 | 0.06 | 100 | -0.01 | 0.09 | 109 | -0.53 | 0.06 | 101 | -0.18 | – | – | –
CCC(C)(C)c1ccc(OCCCCNC(=O)c2cc(Oc3ccc(N=Nc4cc(OC(C)C(=O)O)c5ccccc5c4O)cc3)c3ccccc3c2O)c(C(C)(C)CC)c1 (centres unmarked) [Compound 3U, reference compound] | – | – | – | – | – | – | – | – | – | – | – | – | – | – | – | – | – | – | 2.59 | 2.24 | Green Density @ Exp. High [2]: 0.40; Green Density @ Exp. Low [2]: 0.24; Red Image Spd. [2]: 82; Green Density @ Exp. None [2]: 0.21; Density at 520 nm ([3]; Fixed Only): 1.25; Density at 520 nm [3, 10]: 1.25; Density at 520 nm [3, 11]: 1.25; Density at 520 nm [3, 12]: 1.25; Density at 520 nm [3, 13]: 1.25; Density at 520 nm [3, 14]: 1.25
CCC(C)(C)c1ccc(OCCCCNC(=O)c2cc(Oc3ccc(N=Nc4cc(OC(C)C(=O)O)c5ccccc5c4OC(=O)C4(C)CCCCC4=O)cc3)c3ccccc3c2O)c(C(C)(C)CC)c1 (centres unmarked) [Compound 3] | – | – | – | – | – | – | – | – | – | – | – | – | – | – | – | – | – | – | 2.62 | 2.42 | Green Density @ Exp. High [2]: 0.43; Green Density @ Exp. Low [2]: 0.26; Red Image Spd. [2]: 99; Green Density @ Exp. None [2]: 0.08; Density at 520 nm ([3]; Fixed Only): 0.02; Density at 520 nm [3, 10]: 0.02; unblocking without dinucleophile ([3]; P-1 or P-3, extended treatment): not unblocked by extended treatment; Density at 520 nm [3, 11]: 1.10; unblocking with hydroxylamine ([3]; P-2 and P-4): the blocking group is readily removed; Density at 520 nm [3, 12]: 0.02; Density at 520 nm [3, 13]: 0.50; Density at 520 nm [3, 14]: 1.25
